Measurements from “University of Dundee, Small-Polar-MMV Screening Library” (2021), ChEMBL document CHEMBL3988442.

By UniProt entry, the sequences of proteins in these tests, tags left out.
UniProt P9WFT3, whole entry: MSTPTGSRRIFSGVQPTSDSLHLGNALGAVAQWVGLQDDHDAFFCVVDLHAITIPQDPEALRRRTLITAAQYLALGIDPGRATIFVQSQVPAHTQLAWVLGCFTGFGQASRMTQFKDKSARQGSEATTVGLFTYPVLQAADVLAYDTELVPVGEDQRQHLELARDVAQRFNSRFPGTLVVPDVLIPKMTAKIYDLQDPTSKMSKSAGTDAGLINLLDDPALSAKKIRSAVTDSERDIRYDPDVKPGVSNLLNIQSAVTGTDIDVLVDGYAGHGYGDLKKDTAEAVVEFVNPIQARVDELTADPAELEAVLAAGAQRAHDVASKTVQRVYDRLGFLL

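Tryptophan-tRNA ligase, Mycobacterium tuberculosis (UniProt P9WFT3). Enzyme assay of tryptophanyl-tRNA synthetase; the read-out is not stated. Tested at 10 µM. Higher most likely means stronger inhibition; the record gives no direction and few retests gave an IC50. Size under these conditions: about 65,000 compounds, about 64 of them at 50% or above in at least one test.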

The filed quantity is “Percent Effect” (%). The controls that fix the scale are not given in the record; negative values are as filed. The compounds are a random part of those screened.

compound,percent effect
CCC(=O)Nc1ccc(F)cc1OC,0.2463
Cc1cc(C(=O)Nc2cnn(CC(F)(F)F)c2)nc(N(C)C)n1,3.238
CCCN1CCN(C(=O)Cc2cccnc2)[C@H]2CS(=O)(=O)C[C@H]21,7.29
Cc1nccc(-c2cccc(NCC(=O)N3CCNC3=O)c2)n1,3.021
O=C1CC(c2cccnc2)c2c(c(C(=O)O)cn2-c2ccccc2F)N1 (configuration not stated),8.398
CCN1CCC2(C=C(C(=O)NC3CC3)c3ccccc32)CC1,0.9924
CC(Nc1ncnc2c1CCNCC2)c1nc2c(s1)CCCC2 (configuration not stated),-3.137
CN(C)CC1(O)CCN(C(=O)Cc2ccc3ccccc3c2)C1 (configuration not stated),-3.143
Cc1nnc(C(C)N(C)Cc2c(C)nn(-c3ccccc3)c2C)o1 (configuration not stated),-2.385
OC(CNCCc1nnc2ccccn12)c1ccc2c(c1)OCO2 (configuration not stated),0.2138
Cc1cc(NCc2nnc3n2CCC3)n2nc(C)c(C)c2n1,4.224
C[C@@H]1CN(c2nc(N)nc3c2CCC3)C[C@]1(C)O,0.08136
O=C1NC2(Cc3ccccc31)CN(CC1CCCC1)C2,-0.7779
O=C(c1cccnc1O)N1CCCC2(C=Cc3ccccc3O2)CC1 (configuration not stated),-0.1874
Cc1ncccc1NS(=O)(=O)Cc1cccc(F)c1,-0.7282
CSCC[C@H](NC(=O)CCn1cc(C(C)=O)c2ccccc21)C(=O)O,3.266
O=C(c1cc(F)ccc1F)C1CCN(C(=O)c2cccnc2O)CC1,2.111
COc1cc(NCCNC(=O)c2ccc3[nH]ccc3c2)cc(OC)c1,-2.614
CCc1nc(C)c([C@H]2CN(C)C[C@@H]2C(=O)Nc2ccccc2F)[nH]1,1.385
CCn1nccc1CN(C)C(=O)Cn1cc2c(n1)c(C)nn2CC,2.034
COc1ccc2nnc(CCCC(=O)NCCc3ccncc3)n2n1,-1.4
CS(=O)(=O)N1C[C@H]2CCCN(Cc3cccs3)[C@H]2C1,8.809
COc1ccc(-c2cc(CNc3ncnc4c3CCNCC4)no2)cc1,2.304
CNc1nc(C)cc(N2CCC(C(=O)O)(n3ccc(C(C)C)n3)CC2)n1,-1.417
CC(=O)Nc1nc(C(=O)NCc2ccc(N3CCOC(C)C3)nc2)cs1 (configuration not stated),-5.623
Cc1ccoc1-c1nnc(CNC2CCCN(c3cccnn3)C2)o1 (configuration not stated),8.69
O=C(C1CCOCC1)N1C[C@H]2CC[C@@H]1CN(C1Cc3ccccc3C1)C2,3.078
CN(CC(N)=O)CC(=O)N(C1=CCCCC1)C1CC1,-3.534
CC(C)(C)n1cc(C#N)cc1NC(=O)CCS(=O)(=O)C1CCCC1,-4.329
CS(=O)(=O)N1CCC(NC(=O)COc2ccc(Br)cc2Cl)CC1,15.16
Cc1nccc(-c2ccccc2)c1C(=O)N1CC[C@](C)(O)[C@H](C)C1,4.586
CCCS(=O)(=O)N1C[C@H]2C[C@H](C(=O)N3CCCC3)[C@@H](C1)O2,-2.907
O=C(O)c1cccc(CN2CCC(c3ccnc4ccnn34)CC2)c1,-2.667
CN(C(=O)c1ccc(C#N)cc1)C1CCN(c2ccccn2)CC1,7.627
COc1cccc(CC2CN(C3CCCCC3)CCO2)c1 (configuration not stated),2.001
CCc1nc(C2CCCN(C(=O)c3ccc(F)cc3)C2)no1 (configuration not stated),-0.1254
CN1CCN(C[C@@H]2OC[C@H]3CN(Cc4cccc(F)c4)CC[C@H]32)CC1,-4.722
COC[C@@H]1CC[C@H]2[C@H](CCN2S(=O)(=O)c2ccc(C)cc2)O1,-1.759
COc1ccc(-c2nc(CN3CCc4cncnc4C3)no2)cc1,-0.000005
O=C(c1ccc(F)c(Cl)c1)N1C[C@@H]2CC[C@H](C1)N(Cc1ccccc1)C2,-2.056
Cc1cnn(CC2CCCN2C(=O)c2ccc(F)c(F)c2)c1 (configuration not stated),1.306
CC(C)N1CCCC(CNC(=O)c2ccnc(-n3ccnc3)c2)C1 (configuration not stated),-0.7168
CCCN1CCC(NC(=O)Nc2ccc(OC)c(OC)c2)CC1,-7.869
OC1CCN(c2nc(-c3ccccc3)no2)CC1,-3.685
CS(=O)(=O)NC1CCN(C(=O)CCn2cccn2)CC1,-9.35
CC1(C(=O)NC2CCCC2)CCCN(c2cnccn2)C1 (configuration not stated),-6.431
CCn1nc(C)c(CCNC(=O)C2CCCN(C(N)=O)C2)c1C (configuration not stated),-2.13
O=C(NCCN1CCCCCC1=O)NCc1ccc(Cl)s1,1.886
COc1c(CNCc2ccc(C(=O)N(C)C(C)C)cc2)c(C)nn1C,0.7382
C[C@@H]1CN(Cc2ccncc2)C[C@@]1(O)C1CC1,-0.6431
COc1cnc(N2CCCN(Cc3ccc(F)cc3)CC2)nc1,0.7692
c1ccn2c(C3CCCN(c4ncnc5c4CCNC5)C3)nnc2c1 (configuration not stated),2.639
COC(=O)N1CCC(c2nnc(Cn3ccnc3)n2C)CC1,0.6478
COc1ccc(CCNC(=O)NC2CC(=O)N(c3ccccc3)C2)cc1 (configuration not stated),-2.502
Cc1nc(CN2C(=O)CCC23CCN(c2ncccc2C)CC3)cs1,11.97
COCC(=O)N1CCCCC1c1nc(CN(C)C(C)=O)cc(N(C)C)n1 (configuration not stated),16.47
COc1ccc2c(c1)C1(CCN(Cc3cnn(C)c3)CC1)N(C)CC2,-4.204
COc1ccc(-n2cnnc2SCC(C)(C)O)cn1,0.5329
CC(C)c1nc(CNc2ccc(N3CCC(CO)CC3)cn2)cs1,-6.48
CO[C@H]1CCN(C(=O)c2cc(C)on2)[C@H]1Cc1ccncc1,0.2907
CN1CCN(C(=O)c2ccc(=O)n(C)c2)Cc2ccccc21,-0.09719
CS(=O)(=O)NCCc1cccc2cccnc12,5.55
COc1c(F)cccc1C(=O)N(C)Cc1nc(-c2ccccn2)no1,-1.844
CN1CCN(CC2CC2)C(=O)C12CCN(c1nccs1)CC2,-3.776
COc1ccc(C2Nc3ccccc3NC3=C2C(=O)NC3)cc1OC (configuration not stated),-3.543
COc1ccc(C2CC(=O)Nc3c2nc2n3CCCC2)cc1OC (configuration not stated),-0.5848
Cc1c(O)cccc1C(=O)N1CCCC2(C1)C(=O)N(C)c1ccccc12 (configuration not stated),3.732
CN(Cc1ccoc1)C(=O)C1CCN(C(=O)C2CCCC2)CC1,0.08211
O=C(CN1CC(n2cccn2)C1)NCC1(c2ccccc2)CCC1,29.62
Cc1ncsc1C(=O)N1CCC(O)(Cn2c(C)cc3ccncc32)CC1,-0.3524
CC(C)CN(CC(O)c1ccccc1)C(=O)NC(C)C (configuration not stated),0.4405
Cn1ccc(C(=O)N2CCCCC2c2cc(CCO)[nH]n2)n1 (configuration not stated),-2.415

Some entries from above, unchanged:

{"compound": "Cc1ncsc1C(=O)N1CCC(O)(Cn2c(C)cc3ccncc32)CC1", "percent effect": -0.3524}
{"compound": "CCC(=O)Nc1ccc(F)cc1OC", "percent effect": 0.2463}
{"compound": "CCc1nc(C2CCCN(C(=O)c3ccc(F)cc3)C2)no1", "stereo": "configuration not stated", "percent effect": -0.1254}
{"compound": "COc1cc(NCCNC(=O)c2ccc3[nH]ccc3c2)cc(OC)c1", "percent effect": -2.614}
{"compound": "COc1ccc(C2Nc3ccccc3NC3=C2C(=O)NC3)cc1OC", "stereo": "configuration not stated", "percent effect": -3.543}
{"compound": "CSCC[C@H](NC(=O)CCn1cc(C(C)=O)c2ccccc21)C(=O)O", "percent effect": 3.266}
{"compound": "O=C(c1cccnc1O)N1CCCC2(C=Cc3ccccc3O2)CC1", "stereo": "configuration not stated", "percent effect": -0.1874}